From PMC7723276
Results are given in words; binding and its absence hold for the method and conditions named. Binding seen in cells or lysates may run through a third protein. Some results given as binding are weak or reduced against the parent protein; the word gives no strength. Sequences can lack the tags named with a protein.

Protein sequences, listed by entry. Tags and fused reporters are not part of them.
UniProt P25440: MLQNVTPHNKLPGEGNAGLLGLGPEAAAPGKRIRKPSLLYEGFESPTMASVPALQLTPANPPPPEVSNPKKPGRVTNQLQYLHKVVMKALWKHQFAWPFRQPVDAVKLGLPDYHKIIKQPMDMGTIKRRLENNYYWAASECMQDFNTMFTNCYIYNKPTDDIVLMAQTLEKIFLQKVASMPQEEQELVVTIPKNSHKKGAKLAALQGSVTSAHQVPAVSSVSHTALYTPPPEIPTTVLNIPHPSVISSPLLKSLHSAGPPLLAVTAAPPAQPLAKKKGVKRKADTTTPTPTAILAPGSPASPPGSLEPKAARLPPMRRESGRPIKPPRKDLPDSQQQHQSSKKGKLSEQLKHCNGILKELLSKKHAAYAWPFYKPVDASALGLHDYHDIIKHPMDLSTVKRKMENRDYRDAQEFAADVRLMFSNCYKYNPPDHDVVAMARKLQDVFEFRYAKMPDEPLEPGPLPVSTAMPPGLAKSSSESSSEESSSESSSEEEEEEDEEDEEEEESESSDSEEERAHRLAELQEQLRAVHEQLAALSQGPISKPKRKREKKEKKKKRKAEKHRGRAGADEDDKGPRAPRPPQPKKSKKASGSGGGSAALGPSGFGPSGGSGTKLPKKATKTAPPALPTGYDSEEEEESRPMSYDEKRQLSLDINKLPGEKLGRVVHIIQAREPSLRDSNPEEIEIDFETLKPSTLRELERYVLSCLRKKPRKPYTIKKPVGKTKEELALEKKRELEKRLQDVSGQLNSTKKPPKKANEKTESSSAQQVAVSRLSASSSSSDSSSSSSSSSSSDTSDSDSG

Target: T1, FLAG-SREBP2Nterm (SREBP2 N-terminal transcriptionally active domain, amino acids 1-482) (UniProt Q12772)
T1 sequence: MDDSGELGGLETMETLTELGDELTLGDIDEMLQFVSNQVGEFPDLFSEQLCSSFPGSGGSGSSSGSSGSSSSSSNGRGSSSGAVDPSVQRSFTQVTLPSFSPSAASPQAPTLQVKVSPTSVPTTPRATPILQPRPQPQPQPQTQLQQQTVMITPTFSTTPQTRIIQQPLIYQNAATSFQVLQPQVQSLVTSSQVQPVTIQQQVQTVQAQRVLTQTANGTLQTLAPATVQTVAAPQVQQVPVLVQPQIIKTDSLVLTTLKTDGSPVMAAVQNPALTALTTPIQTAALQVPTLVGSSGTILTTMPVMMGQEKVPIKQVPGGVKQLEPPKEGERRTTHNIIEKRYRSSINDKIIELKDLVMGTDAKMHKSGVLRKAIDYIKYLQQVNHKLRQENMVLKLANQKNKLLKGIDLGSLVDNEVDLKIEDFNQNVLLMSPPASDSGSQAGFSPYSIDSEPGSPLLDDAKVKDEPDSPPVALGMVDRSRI
Assay: co-IP; lysate (Pierce IP Lysis Buffer) of transfected cells incubated with anti-DYKDDDDK (FLAG) magnetic agarose beads at 4°C overnight, washed 3x with cold PBS, eluted with 0.1 M glycine pH 2.8; immunoblot for endogenous BRD2 or BRD4; cells with or without U18 treatment

binding: binds
Substance: BRD2 (endogenous) (from UniProt P25440 1-801)
